No constants are given. Whether binding was seen depends on the method and setting. Binding seen in cells or lysates may run through a third protein. Some entries that bind do so weakly or less than the wild type.
Biological target: GST-Survivin (human) (UniProt O15392)
Experiment: GST pull-down on glutathione beads, SDS-PAGE and fluorography

Sequences of proteins named here, by UniProt entry; tags and fusion partners are left off.
UniProt O15392: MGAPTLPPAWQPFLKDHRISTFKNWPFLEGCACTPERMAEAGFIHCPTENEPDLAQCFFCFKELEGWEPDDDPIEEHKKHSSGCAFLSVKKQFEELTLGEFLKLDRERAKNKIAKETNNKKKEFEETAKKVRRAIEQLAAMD

B1: 35S-labeled in vitro translated (IVT) SBP1 protein (protein)
chain: MEHYRKAGSVELPAPSPMPQLPPDTLEMRVRDGSKIRNLLGLALGRLEGGSARHVVFSGSGRAAGKAVSCAEIVKRRVPGLHQLTKLRFLQTEDSWVPASPDTGLDPLTVRRHVPAVWVLLSRDPLDPNECGYQPPGAPPGLGSMPSSSCGPRSRRRARDTRS
modifications: 35S label
- binding: binds
